Patent US20040038243A1
No constants are given. Whether binding was seen depends on the method and setting. Binding seen in cells or lysates may run through a third protein. Some results given as binding are weak or reduced against the parent protein; the word gives no strength. Where a sequence is shown, tags or fusion partners need not be part of it.

Sequences of proteins named here, by UniProt entry; tags and fusion partners are left off.
UniProt P10415: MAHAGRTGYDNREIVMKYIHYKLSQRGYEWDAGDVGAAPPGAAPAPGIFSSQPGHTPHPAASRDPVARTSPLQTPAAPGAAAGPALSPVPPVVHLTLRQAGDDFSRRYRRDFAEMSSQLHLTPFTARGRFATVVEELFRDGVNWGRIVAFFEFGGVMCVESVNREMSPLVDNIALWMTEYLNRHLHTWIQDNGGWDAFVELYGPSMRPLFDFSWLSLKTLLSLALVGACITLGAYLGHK

B1: HA-p53AIP1β (protein, not shown: small tags and cut ends)
chain: MGSSSEASFRSAQASCSGARRQGLGRGDQNLSVMPPNGRAQTHTPGWVSDPLVLGAQVHGGCRGIEALSVSSGSWSSATVWILTVQ
B2: HA-p53AIP1α (protein, not shown: small tags and cut ends)
chain: MGSSSEASFRSAQASCSGARRQGLGRGDQNLSVMPPNGRAQTHTPGWVSDPLVLGAQVHGGCRGIEALSVSSGSWSSATVWILTGLGLGLSRPFLPGATVLRDRPLGSAFELSYDQKKAPLRLQ

Key:
bcl-2 protein (human) [1] = target: bcl-2 protein (human) (UniProt P10415); assay: co-immunoprecipitation from extracts of cotransfected COS7 cells, Western blot
bcl-2 protein (human) [2] = target: bcl-2 protein (human) (UniProt P10415); assay: co-immunoprecipitation with anti-HA or anti-bcl-2 antibody from extracts of cotransfected COS7 cells, Western blot
bcl-2 protein (human) [3] = target: bcl-2 protein (human) (UniProt P10415); assay: co-immunoprecipitation (IP with anti-bcl-2 or anti-HA antibody, immunoblotting), COS7 cells cotransfected with bcl-2 and HA-p53AIP1α

Binder	binding (bcl-2 protein (human) [1])	binding (bcl-2 protein (human) [2])	binding (bcl-2 protein (human) [3])
B1	binds	–	–
B2	–	binds	binds
